Test results taken from paper PMC11315935, “Multi-layered heterochromatin interaction as a switch for DIM2-mediated DNA methylation” (Nature Communications, 2024).
Construct, isoform or probe ends are uncertain for at least one entry. For part of these data: A weaker result is weaker than the reference pair of the same experiment. For part of these data: At least one verdict rests on a figure or table, not on a statement of the authors.

Chains of the proteins cited; added tags and fusions are not shown.
UniProt Q3Y3Z1, entry or part of it W261A: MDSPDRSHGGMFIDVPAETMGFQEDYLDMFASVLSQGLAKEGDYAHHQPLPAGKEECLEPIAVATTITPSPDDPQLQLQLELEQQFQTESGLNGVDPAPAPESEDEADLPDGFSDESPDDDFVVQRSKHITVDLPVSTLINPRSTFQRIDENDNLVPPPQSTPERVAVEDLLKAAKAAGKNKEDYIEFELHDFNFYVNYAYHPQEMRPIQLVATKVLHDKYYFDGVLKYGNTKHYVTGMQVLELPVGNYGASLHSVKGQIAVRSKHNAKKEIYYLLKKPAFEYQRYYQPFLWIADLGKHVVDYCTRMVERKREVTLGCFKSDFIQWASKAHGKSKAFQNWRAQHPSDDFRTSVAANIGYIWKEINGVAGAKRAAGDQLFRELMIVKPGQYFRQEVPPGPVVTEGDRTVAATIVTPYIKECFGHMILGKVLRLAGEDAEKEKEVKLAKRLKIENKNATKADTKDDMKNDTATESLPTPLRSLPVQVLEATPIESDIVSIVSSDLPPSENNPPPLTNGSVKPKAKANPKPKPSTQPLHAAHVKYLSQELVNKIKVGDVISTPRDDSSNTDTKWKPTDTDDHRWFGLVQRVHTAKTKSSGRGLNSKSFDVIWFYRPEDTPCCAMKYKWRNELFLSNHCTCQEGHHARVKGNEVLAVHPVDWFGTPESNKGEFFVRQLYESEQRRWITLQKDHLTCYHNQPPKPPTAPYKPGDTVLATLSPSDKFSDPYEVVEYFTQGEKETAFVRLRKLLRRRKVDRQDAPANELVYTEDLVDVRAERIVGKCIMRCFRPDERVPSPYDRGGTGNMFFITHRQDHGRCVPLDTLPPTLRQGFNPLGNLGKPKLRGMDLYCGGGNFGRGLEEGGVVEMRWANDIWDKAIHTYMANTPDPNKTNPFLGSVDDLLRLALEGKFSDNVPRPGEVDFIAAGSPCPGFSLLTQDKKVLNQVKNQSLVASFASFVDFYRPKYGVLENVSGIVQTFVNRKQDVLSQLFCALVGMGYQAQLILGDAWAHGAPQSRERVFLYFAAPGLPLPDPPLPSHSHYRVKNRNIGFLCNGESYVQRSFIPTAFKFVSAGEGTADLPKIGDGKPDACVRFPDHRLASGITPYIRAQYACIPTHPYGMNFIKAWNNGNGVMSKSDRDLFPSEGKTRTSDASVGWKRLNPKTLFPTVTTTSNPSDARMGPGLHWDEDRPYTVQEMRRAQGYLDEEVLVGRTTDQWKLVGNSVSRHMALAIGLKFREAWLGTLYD
UniProt Q3Y3Z1, entry or part of it: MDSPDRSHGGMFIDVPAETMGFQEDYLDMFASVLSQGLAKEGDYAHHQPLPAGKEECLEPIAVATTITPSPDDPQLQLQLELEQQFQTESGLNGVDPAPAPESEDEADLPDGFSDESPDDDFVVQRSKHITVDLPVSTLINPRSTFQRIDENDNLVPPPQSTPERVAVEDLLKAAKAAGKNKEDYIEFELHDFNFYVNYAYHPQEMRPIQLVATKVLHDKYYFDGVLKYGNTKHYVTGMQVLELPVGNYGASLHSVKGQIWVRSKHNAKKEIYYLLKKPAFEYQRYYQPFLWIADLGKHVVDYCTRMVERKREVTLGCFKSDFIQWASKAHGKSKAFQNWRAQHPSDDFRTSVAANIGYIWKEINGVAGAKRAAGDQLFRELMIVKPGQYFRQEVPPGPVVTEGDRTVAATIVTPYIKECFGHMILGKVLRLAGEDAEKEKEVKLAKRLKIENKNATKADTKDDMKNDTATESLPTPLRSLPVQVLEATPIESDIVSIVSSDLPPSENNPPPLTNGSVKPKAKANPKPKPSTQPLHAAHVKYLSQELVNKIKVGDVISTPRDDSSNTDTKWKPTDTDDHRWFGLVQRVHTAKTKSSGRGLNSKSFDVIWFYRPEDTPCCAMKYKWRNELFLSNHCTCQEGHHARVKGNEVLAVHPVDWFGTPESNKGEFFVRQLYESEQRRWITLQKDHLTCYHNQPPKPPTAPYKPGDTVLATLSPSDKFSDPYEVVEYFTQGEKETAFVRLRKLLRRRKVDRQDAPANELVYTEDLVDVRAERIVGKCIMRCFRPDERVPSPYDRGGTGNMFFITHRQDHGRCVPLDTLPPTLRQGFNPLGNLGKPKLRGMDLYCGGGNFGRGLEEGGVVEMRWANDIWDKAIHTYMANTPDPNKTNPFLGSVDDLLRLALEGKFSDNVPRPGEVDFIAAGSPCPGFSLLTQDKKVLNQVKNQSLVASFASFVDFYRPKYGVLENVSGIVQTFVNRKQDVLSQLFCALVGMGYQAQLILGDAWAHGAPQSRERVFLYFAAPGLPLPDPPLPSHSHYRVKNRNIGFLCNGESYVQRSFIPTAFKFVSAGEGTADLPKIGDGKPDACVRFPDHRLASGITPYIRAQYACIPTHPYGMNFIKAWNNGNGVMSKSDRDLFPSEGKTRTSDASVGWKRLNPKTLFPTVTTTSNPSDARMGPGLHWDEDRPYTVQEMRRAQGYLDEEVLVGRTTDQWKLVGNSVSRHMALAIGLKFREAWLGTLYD
UniProt Q3Y3Z1, entry or part of it W581A: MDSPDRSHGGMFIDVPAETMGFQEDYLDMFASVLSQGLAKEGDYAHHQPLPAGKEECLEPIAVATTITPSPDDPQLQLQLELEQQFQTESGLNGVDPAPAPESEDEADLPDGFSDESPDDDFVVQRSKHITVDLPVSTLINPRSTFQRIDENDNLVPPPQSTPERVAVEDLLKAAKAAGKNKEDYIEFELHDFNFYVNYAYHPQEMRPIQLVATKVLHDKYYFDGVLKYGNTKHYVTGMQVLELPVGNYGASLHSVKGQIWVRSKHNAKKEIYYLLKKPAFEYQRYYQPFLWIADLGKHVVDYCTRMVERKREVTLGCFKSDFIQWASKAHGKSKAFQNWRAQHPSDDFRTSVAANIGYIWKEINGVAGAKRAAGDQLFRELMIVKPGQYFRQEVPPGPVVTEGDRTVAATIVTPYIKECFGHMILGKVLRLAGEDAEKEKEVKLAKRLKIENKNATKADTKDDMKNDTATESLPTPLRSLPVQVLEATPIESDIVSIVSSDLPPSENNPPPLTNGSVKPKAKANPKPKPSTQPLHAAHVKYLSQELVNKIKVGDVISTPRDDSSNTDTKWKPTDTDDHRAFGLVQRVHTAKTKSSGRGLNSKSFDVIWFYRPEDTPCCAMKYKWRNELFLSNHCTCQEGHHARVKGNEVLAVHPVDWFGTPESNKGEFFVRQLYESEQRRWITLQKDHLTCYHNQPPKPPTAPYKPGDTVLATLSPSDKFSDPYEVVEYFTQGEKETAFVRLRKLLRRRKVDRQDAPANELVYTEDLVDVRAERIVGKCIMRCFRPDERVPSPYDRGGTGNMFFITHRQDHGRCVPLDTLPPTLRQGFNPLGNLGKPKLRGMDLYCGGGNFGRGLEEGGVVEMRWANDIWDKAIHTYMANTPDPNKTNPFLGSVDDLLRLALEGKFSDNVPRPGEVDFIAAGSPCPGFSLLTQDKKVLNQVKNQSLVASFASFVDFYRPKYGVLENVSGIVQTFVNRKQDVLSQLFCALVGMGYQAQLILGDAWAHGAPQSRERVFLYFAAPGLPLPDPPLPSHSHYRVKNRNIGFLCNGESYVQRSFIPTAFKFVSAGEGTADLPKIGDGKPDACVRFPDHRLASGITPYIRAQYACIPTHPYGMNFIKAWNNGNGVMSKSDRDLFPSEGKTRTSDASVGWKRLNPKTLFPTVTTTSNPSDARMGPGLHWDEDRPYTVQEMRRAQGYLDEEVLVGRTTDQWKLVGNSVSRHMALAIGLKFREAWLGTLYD

Legend:
Experiment in all cases: EMSA
Settings in all cases: H3K9me3 peptide 0.8 uM; EMSA: 0.1 uM DNA, 0-0.4 uM DIM2, 20 mM Tris-HCl pH 8.0, 75 mM NaCl, 10% glycerol, 5 mM DTT, 2% NP-40; gel at 4 C, Tris-Glycine pH 8.6; recombinant protein; residues 1-1242; protein details: His6-MBP removed by TEV; label: none (SYBR Gold stain)
[1] = biological target: DIM2 W261A (Neurospora crassa) (UniProt Q3Y3Z1)
[2] = biological target: DIM2 (1-1242) (Neurospora crassa) (UniProt Q3Y3Z1)
[3] = biological target: DIM2 W581A (Neurospora crassa) (UniProt Q3Y3Z1)

Sequence: ATTATTAATCTAAATTTA (double strand) [CHH DNA 18-mer duplex]
- binding result [1]: binds more weakly
- binding result [2]: binds
- binding result [3]: binds more weakly
